The source of these data is patent US11759477B2, “Compositions of nitrates and methods of use thereof” (Heartbeet Ltd., priority 2007, dated 2023).

The conditions of this data set: 0.1 mmol/kg/day oral, 3 days.

Turning to `O=[N+]([O-])[O-].[Na+]` [sodium nitrate], under “after VO2peak-test”, the “Hematocrit value after the VO2peak-test” value was 46±4% and the “[Hb] immediately after the VO2peak-test” value is given as 163±13 g×1-1. Moreover, for the setting “at rest”, the “Hematocrit value at rest” value was 42±4% and the “[Hb] at rest” value was found to be 152±11 g×1-1.
